Test results published in PubChem BioAssay AID1347075 (National Center for Advancing Translational Sciences (NCATS), 2019).
About 5,500 (1.4%) of roughly 400,000 compounds were called active. The inconclusive results got no clear call from the source; some entries with a clear call stand among them for comparison. Calls come from the whole dose curve; as a rule, active = well fitted cell-killing curve with a large enough effect; inconclusive = small, poorly fitted or top-dose-only effect, or effect the other way; inactive = flat fitted curve, though single readings scatter. A potency beside an inconclusive call is a rough fit, not a confirmed value.

experiment: qHTS assay for MDR1-selective chemotherapeutics: Primary screen using the parental adenocarcinoma cell KB-3-1; conditions: KB-3-1 viability, CellTiter-Glo ATP luminescence, 72 h; activity change, negative = cytotoxic: at 46.1 µM (top of the series); note: nearly all actives have a fitted effect of over 60% in size
Procedure, shortened: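 Viability of parental KB-3-1 cells, measured by CellTiter-Glo luminescence, followed a 72 h incubation at 37 °C with pinned compounds in phenol-red-free DMEM containing 10% FBS.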
% is set by controls: 0 for no effect and ±100 for the full control effect; potency is the fitted concentration of half-maximal effect.

SMILES | activity change, negative = cytotoxic | Potency
Nc1ccc(-c2nc3ccc(C(=O)O)cc3s2)cc1 | inactive: -16.6% | –
CCC(c1nc2ccccc2c(=O)n1-c1nc2ccccc2s1)N1C(=O)c2ccccc2C1=O (stereo not drawn) | – | inconclusive: 32.6 µM [cytotoxic, single point]
COc1ccc(S(=O)(=O)Nc2ccccc2C(=O)Nc2nc(-c3ccc(F)cc3)cs2)cc1OC | – | inconclusive: 20.6 µM [cytotoxic, partial curve, poor fit]
O=C(Nc1ccc(Oc2ccccc2)cc1)C1CCCO1 (stereo not drawn) | inactive: 1.3% | –
COc1ccccc1C(=O)Nc1nnc(CCc2ccccc2)s1 | – | active: 11.6 µM
Cc1ccc(Cl)cc1N1CCN(S(=O)(=O)c2ccc3[nH]c(=O)c(=O)[nH]c3c2)CC1 | inactive: 2.3% | –
CC(C)Cn1c2c(c(O)c(C(=O)Nc3nccs3)c1=O)CCCC2 | – | inconclusive: 29.1 µM [cytotoxic, single point]
O=C(Nc1cc(C(=O)N2CCCC2)ccc1N1CCCC1)c1ccccc1F | inactive: 19.2% | –
Cc1cccc(NC(=O)c2sc3nc4c(cc3c2N)CCCCCC4)c1C | – | inconclusive: 0.731 µM [cytotoxic, full curve, poor fit]
OCCC1CN(Cc2nc(-c3ccccc3)cs2)CCN1CCc1ccccc1 (stereo not drawn) | – | inconclusive: 23.1 µM [cytotoxic, single point]
CC1(c2ccccc2)NC(=O)N(CC(=O)Nc2nc(-c3ccccn3)cs2)C1=O (stereo not drawn) | – | inconclusive: 20.6 µM [cytotoxic, single point]
Cc1nc(N2CCN(Cc3ccc4c(c3)OCO4)CC2)nc2c1C(=O)CC(c1ccco1)C2 (stereo not drawn) | – | inconclusive: 14.6 µM [cytotoxic, partial curve, poor fit]
Cc1ccc(-c2csc(NC(=O)c3ccc(Br)cc3)c2C(=O)O)cc1 | – | inconclusive: 13 µM [cytotoxic, partial curve, poor fit]
COc1ccc(/C=N/NC(=O)c2sccc2OCc2ccc(F)cc2)cc1OC | – | inconclusive: 23.1 µM [cytotoxic, single point]
Cc1cc(C)c(S(=O)(=O)N2CCCCC2)c(C)c1N(C)S(=O)(=O)c1ccc(Cl)cc1 | – | inconclusive: 18.4 µM [cytotoxic, single point]
Cc1[nH]c2ccccc2c1C(c1ccccc1)c1cccs1 (stereo not drawn) | – | inconclusive: 23.1 µM [cytotoxic, single point]
O=C(NC(=O)N1CCN(c2cccc(Cl)c2)CC1)c1ccccc1 | – | inconclusive: 23.1 µM [cytotoxic, partial curve]
CCN(CC)S(=O)(=O)c1ccc(N(C)Cc2ccc(C(F)(F)F)cc2)nc1 | – | active: 10.3 µM

Exported field by field: part of the list above
CC(C)Cn1c2c(c(O)c(C(=O)Nc3nccs3)c1=O)CCCC2
  Potency: inconclusive: 29.1 µM [cytotoxic, single point]
COc1ccc(/C=N/NC(=O)c2sccc2OCc2ccc(F)cc2)cc1OC
  Potency: inconclusive: 23.1 µM [cytotoxic, single point]
